Reference: the supplement of paper PMC5949888
Most values lie at the floor of the assay. Slopes are relative: functional sequences can read slightly below zero.

What follows are substances tested on Saccharomyces cerevisiae PS128 hsf1 delta, HSF1(1-493) fusion (assay: growth estimate (transactivation domain function in HSF1 fusion, heat-shock survival) (a.u. (slope of normalised read count over time)); higher = stronger growth at 37°C, i.e. more transactivation activity). Conditions: library: random library.

Substance	growth estimate
AVRLLSRRHAFCHL	< -0.25
GTKFHVPWGNS	-0.0569
RSVVG	< -0.25
SSVP	< -0.25
YREGELHDQACYRYQVWTIT	< -0.25
TKIVSFIGGLPTKAYPSRYG	< -0.25
GWSKC	< -0.25
YNTRQLCT	< -0.25
LNACKYRNTKRKVLSSNIAI	< -0.25
RLRRQDQSFVPKFVLFTTST	< -0.25
HYN	< -0.25
HVDSFHYLGSLSGGAGILVL	< -0.25
YQQDYIRA	< -0.25
LRVWEFAPTEVTQVYV	< -0.25
RSTVVPH	< -0.25
GGILRAHPSGIWNTNTPYGR	< -0.25
RPTNLHDRTKPVKARPNRLV	< -0.25
GDNCRASCDLRTLLPALILL	< -0.25
LHSSELLRGFRTPRGYRVVQ	< -0.25
STRITPWIAGANIDPLEGLE	< -0.25
LIHTRRRGDIKAYSVVPRAF	< -0.25
TGIIDKGIRICERV	< -0.25
MFNRV	< -0.25

Substance	growth estimate
QCRGVHKLGGRYVHGTIEPL	< -0.25
KKAERVLHLHRQLRRGIVLV	< -0.25
VMP	< -0.25
SGMPNGQSRNPATLNSKFGQ	< -0.25
DRTPEAPSTRFLCTGRAVWA	< -0.25
RYYCERE	-0.246
GDAETSWPGVGL	< -0.25
ADTSWLKSGTGYWSGLL	-0.197
CDKVQCGFSASEALVESVSN	< -0.25
RESDSRGQDLLC	< -0.25
RCLLAIEWFSVRERINPAVW	< -0.25
PECTRCGTSPLAVS	< -0.25
CREGRL	< -0.25
GSNRMYPRPRVTGSSERSS	< -0.25
IKYAAILLRL	< -0.25
HFCRDSGFDGLSIPHLNLQW	< -0.25
GDRAEAAM	< -0.25
KIVPWAT	< -0.25
HLTDAGIFPNL	< -0.25
IQTMSTRAPSGETAQCQLLL	< -0.25
SPMFGASRASRLSC	< -0.25
LFCVVRRHREYSSFRLLKRL	< -0.25
IRIEVLQLIHA	< -0.25

Substance	growth estimate
AFTWGGCGGKTHILLAFIRR	< -0.25
LRCPGSADWLSLPAVTTTTA	< -0.25
TATRGPWSRLEESSGRPLGS	< -0.25
LLSSGAGYQVIALLPITTC	< -0.25
TCSGSLKAGCINPPVNDASV	< -0.25
LPMDQREAHVV	< -0.25
LILKCLPFNDRIL	< -0.25
PLHLVWLVLGGCA	< -0.25
GQHYRALS	< -0.25
VRGLSC	< -0.25
NCR	< -0.25
SLVD	< -0.25
RSYSGSWLCTWSMHLGSQPP	< -0.25
TVC	< -0.25
HDPKPGSALIRLLKVIDITV	< -0.25
WNLCLRHGTQNCIGPCLANG	< -0.25
EAVKSGVRHDNVMTETLSIA	< -0.25
DRM	< -0.25
ASPAYVRATPY	< -0.25
RLWTVRLVRCG	< -0.25
SRDSRGL	< -0.25
QFHRAL	-0.229
ALSYVYSLLAY	< -0.25

Substance	growth estimate
SRGTRLY	< -0.25
ETNVSVAVVEKLVGSGGGRV	< -0.25
RQIISGS	< -0.25
RIRAATKTE	< -0.25
VRFEGVSRFLVRARVIRQCK	< -0.25
TNSTRGRVVRACLCSWHRGL	< -0.25
RQVKGSLSNAIDYRGSLLAE	< -0.25
AGATSSLYGQGKLSAYYWGD	< -0.25
RLTDLVCMILTVVCPWQCVP	< -0.25
GHLLGSVSLIAYMTVGCRDT	< -0.25
LRPPTVRVWGCQASSVNWTP	< -0.25
LISARRIHNRL	< -0.25
MVAMLV	< -0.25
SWFGGPFSRSR	< -0.25
LESCINHTDPLLLCTAPVVD	< -0.25
MLI	< -0.25
LYGS	< -0.25
VSFGVCTLLCEAGPSFAV	< -0.25
GYASPDVEREGSLGFPIPAL	< -0.25
STRRGIRRRSWFR	< -0.25
SEAGFPVCGTGYASV	< -0.25
ASRVGGSNESNEEATQNSP	< -0.25
RLGLFIPVECVGVLVGLCSA	< -0.25

Substance	growth estimate
VGGGVRNPLVDYKASRFRTC	< -0.25
WGARTSARLHLAAPPQPDNV	< -0.25
SGMVLDTLLADTPGDLV	< -0.25
HAWPHVNGTARQRAR	< -0.25
RDCRSWQFKRLIGP	< -0.25
IKNSVIARREQVGL	< -0.25
HWWAVLDD	< -0.25
LRNEWCPVGSE	< -0.25
LGLLVCVKEPNFISLGRGSI	< -0.25
RGNLVLNCGVPECP	< -0.25
LPVTRTSGENE	< -0.25
RCARAGGKLFDRSE	< -0.25
VRCVVWVIRVRWLIHQFLYS	< -0.25
CST	< -0.25
WMLARATEVFPGDAVSGFI	< -0.25
ARTWIGTVRKTG	< -0.25
FLPPMYGMYWGRSGTVTTRG	< -0.25
DPGDHVLHYMYEPLNKREEH	< -0.25
IQGPRSH	< -0.25
MCGIIAIQSSP	< -0.25
GRGCELSSSGCTWMQFQ	< -0.25
IFWDRLESRSSDGLCCEITR	< -0.25
LPLSPANPARDHLTHLVTRT	< -0.25

Substance	growth estimate
PTISRGDAHSSLKRISD	< -0.25
MGASVLG	< -0.25
YSFRRTELALYCDDP	< -0.25
LIHGRLLRRNLSLVLTVRKD	-0.229
PDVS	< -0.25
DQRTRRGASSQYQ	< -0.25
LVWGIYRGGFKLRVP	< -0.25
MQTGMYLGR	< -0.25
ELLRISMHLRLERDPWPTCV	< -0.25
VFFL	< -0.25
QLFEVCVGLHFTFLPKVSGD	< -0.25
QAW	< -0.25
TRIVELMATSSTIMRARHVT	< -0.25
FVSSLPREDGVPRWWQAGAA	< -0.25
TRGTAHNGTVEWGLGAH	0.116
SRDTRLLLWAFFETRLGIPG	< -0.25
IPASHSREGV	-0.246
DCLAYLCSRFYRVACVRLKR	< -0.25
WYF	< -0.25
LYSLR	-0.241
MRA	-0.246
TLVNQDTRIS	< -0.25
GNWQWHGDWVSSVQFDRNTS	< -0.25

Random excerpt: 4 records from the list, in no set order.
Substance	growth estimate
WYF	< -0.25
IPASHSREGV	-0.246
TRIVELMATSSTIMRARHVT	< -0.25
DCLAYLCSRFYRVACVRLKR	< -0.25

Further records follow:

Substance	growth estimate
LFLRVISECGDNVLRVLTLD	< -0.25
SQVHVENHGAPEVLWSLLTA	< -0.25
GVYSLSTLCFRVRDHQCTSQ	< -0.25
SFHPWCVNREGHL	< -0.25
LGNRKV	< -0.25
GKEC	< -0.25
LNSWVVSRWLRVGICCRRPT	< -0.25
RCDAINPLLFPERRQYDRPA	< -0.25
QGAGATQSR	< -0.25
FGGFRTVPPVPQSRPVRRVC	< -0.25
LNSAGVQPSKPVLDYHVVPG	< -0.25
TAAG	< -0.25
SIEEGKQSGHYIL	< -0.25
NYARLFFLKYARWNRNSPLW	< -0.25
FDVIRIPQQDGPTPVDPVMT	< -0.25
VVNKRRG	< -0.25
GYDGFSCN	< -0.25
DLVSRSMATV	< -0.25
QYEERCRKSPSTRDEFHGSH	< -0.25
IFSPYAVSIISGPT	< -0.25
FEANLRVLSAPGGPGEMLDP	< -0.25
NSGLAKQCFGAVCRGVGFKF	< -0.25

Not a retest: an excerpt of the list.
Substance	growth estimate
FDVIRIPQQDGPTPVDPVMT	< -0.25
VVNKRRG	< -0.25
GYDGFSCN	< -0.25
DLVSRSMATV	< -0.25
QYEERCRKSPSTRDEFHGSH	< -0.25
